Results from the supplement of paper PMC8256030.
Where “and” joins values, the source holds several entries; their conditions need not be identical. Equal values may be shown once. This is one part of the list. Repeats in this data set agree poorly, so a single value says little.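 HEK293T cells were given each compound shortly before transfection with a reporter in which red mCherry is followed by the SARS-CoV-2 frameshift element and then GFP in the −1 frame, so GFP appears only after frameshifting.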

tested on: SARS-CoV-2 -1 PRF reporter mCherry-FSE-GFP(-1); assay: mCherry (red) intensity as percent of control; higher = higher upstream reporter expression; conditions: 10 µM; 24 h; HEK293T

`COC(=O)C1=C(C)NC(C)=C(C(=O)OC)C1c1ccccc1[N+](=O)[O-]` [nifedipine] was tested, and the mCherry was 75.7% and 92.5%.
For `N=C(N)NCCC[C@H](N)C(=O)O` [arginine], the mCherry was 111% and 118%.
In the case of `C[C@@H](O[C@H]1OCCN(Cc2n[nH]c(=O)[nH]2)[C@H]1c1ccc(F)cc1)c1cc(C(F)(F)F)cc(C(F)(F)F)c1` [Aprepitant], the mCherry was 127% and 107%.
In the case of `Nc1nc(NC2CC2)c2ncn([C@H]3C=C[C@@H](CO)C3)c2n1` [abacavir], the mCherry was 82% and 100%.

Compared with `CN1C(CCl)Nc2cc(Cl)c(S(N)(=O)=O)cc2S1(=O)=O` (stereo not given) [methyclothiazide], `Nc1cc(C(Cl)=C(Cl)Cl)c(S(N)(=O)=O)cc1S(N)(=O)=O` [clorsulon] is lower in mCherry: 106% for the first, 93.6% for the second.

First: CC1=C(C(=O)O)N2C(=O)[C@@H](NC(=O)[C@H](N)c3ccccc3)[C@H]2SC1
Second: CCC(C(=O)O)c1ccc(-c2ccccc2)cc1 (stereo not given) [xenbucin]
The mCherry of the first is lower: 85.5% for the first, 93.7% for the second.

Compared with `CS(=O)(=O)CCNCc1ccc(-c2ccc3ncnc(Nc4ccc(OCc5cccc(F)c5)c(Cl)c4)c3c2)o1` [lapatinib], `C=Cc1cc(O)cc2nc(-c3ccc(O)c(F)c3)oc12` [prinaberel] is lower in mCherry: 67.8% for the first, 65.7% for the second.

Compared with `C[C@H](CCC(=O)O)[C@H]1CC[C@H]2[C@@H]3C(=O)C[C@@H]4CC(=O)CC[C@]4(C)[C@H]3CC(=O)[C@]12C` [dehydrocholic acid], `C[C@H]1[C@H](OC(=O)CCC(=O)O)O[C@@H]2O[C@@]3(C)CC[C@H]4[C@H](C)CC[C@@H]1[C@@]24OO3` [artesunate] is lower in mCherry: 122% for the first, 52.8% for the second.

Going from `CC(Cc1ccccc1)NN` (stereo not given) [pheniprazine] to `CC(C)C[C@H](NC(=O)[C@H](Cc1ccccc1)NC(=O)c1cnccn1)B(O)O` [Bortezomib], the mCherry rises from 77.2% to 114%.

First: CCCCCCCCCCCCCCCCCCOP(=O)([O-])OC1CC[N+](C)(C)CC1
Second: CCN(CC)CCOCCOC(=O)C(CC)(CC)c1ccccc1 [oxeladin]
The mCherry of the first is higher: 109% for the first, 82.1% for the second.

Compared with `N=C(N/N=C/c1ccc(Cl)cc1)N/N=C/c1ccc(Cl)cc1` [robenidine], `CC(C)NC(=N)NC(=N)Nc1ccc(Cl)cc1` is higher in mCherry: 63.1% for the first, 104% for the second.

Going from `CC(C)(CO)[C@@H](O)C(=O)NCCC(=O)O` [calcium pantothenate] to `CNCC(O)c1ccc(OC(=O)C(C)(C)C)c(OC(=O)C(C)(C)C)c1` (stereo not given) [dipivefrine], the mCherry falls from 102% to 101%.

First: COc1nsnc1NS(=O)(=O)c1ccc(N)cc1 [sulfametrole]
Second: COc1ccc2c(c1)c(-c1ccccc1)nc(=O)n2CC1CC1 [ciproquazone]
The mCherry of the first is higher: 69.6% for the first, 55.9% for the second.

First: CN1CCN(c2cc3c(cc2F)c(=O)c(C(=O)O)cn3-c2ccc(F)cc2)CC1
Second: CN1CCN(C2=Nc3cc(F)ccc3Cc3ccccc32)CC1 [fluperlapine]
The mCherry of the first is higher: 76% for the first, 48.1% for the second.

First: O=c1cc(CN2CCOCC2)c2ccc(O)cc2o1 [oxazorone]
Second: Cc1cc(=O)oc2cc(OS(=O)(=O)O)c(OS(=O)(=O)O)cc12 [sulmarin]
The mCherry of the first is higher: 97.1% for the first, 57.3% for the second.

Going from `C#Cc1c[nH]c(=O)[nH]c1=O` [eniluracil] to `CCCC(=O)OCOC(=O)C1=C(C)NC(C)=C(C(=O)OC)C1c1cccc(Cl)c1Cl` (stereo not given) [clevidipine], the mCherry rises from 73.1% to 105%.

Going from `S=C=Nc1ccc(N=C=S)cc1` [bitoscanate] to `CCCCc1cc2ccccc2c(OCCN(C)C)n1` [quinisocaine], the mCherry falls from 94.5% to 77.9%.

Going from `OC(CNC12CC3CC(CC(C3)C1)C2)COc1ccccc1` (stereo not given) [mantabegron] to `CC(C)OC(=O)CCC/C=C\C[C@@H]1[C@@H](/C=C/C(F)(F)COc2ccccc2)[C@H](O)C[C@@H]1O` [tafluprost], the mCherry rises from 78.2% to 90.3%.

First: CO[C@H]1/C=C/O[C@@]2(C)Oc3c(C)c(O)c4c(O)c(c(/C=N/N5CCN(C)CC5)c(O)c4c3C2=O)NC(=O)/C(C)=C\C=C\[C@H](C)[C@H](O)[C@@H](C)[C@@H](O)[C@@H](C)[C@H](OC(C)=O)[C@@H]1C [Rifampicin]
Second: C/C=C\C=C\[C@@H]1O[C@](O)([C@H](CC)C(=O)NC/C=C/C=C(\C)[C@@H](OC)[C@H](C)[C@@H]2O[C@H](/C=C/C=C/C=C(\C)C(=O)c3c(O)cc[nH]c3=O)[C@H](O)[C@@H]2O)[C@H](O)[C@H](O)C1(C)C [mocimycin]
The mCherry of the first is lower: 71.8% for the first, 107% for the second.

Going from `CC(C)(N)C(=O)N[C@H](COCc1ccccc1)C(=O)N1CCC2(CC1)CN(S(C)(=O)=O)c1ccccc12` [ibutamoren] to `CC(C)NC(=O)[C@H]1CCC[C@H]1Nc1nc(Nc2ccc(C(=O)N(C)C3CCN(C)CC3)cc2)ncc1Cl`, the mCherry falls from 101% to 84.7%.

First: NC(=O)c1[nH]nc([C@@H]2O[C@H](CO)[C@@H](O)[C@H]2O)c1O [pirazofurin]
Second: C[C@]12CCC(=O)C=C1C=C[C@@H]1[C@@H]2CC[C@@]2(C)[C@H]1CC[C@@]21CCC(=O)O1
The mCherry of the first is lower: 56.6% for the first, 109% for the second.

Compared with `O=S(=O)(O)NC1CCCCC1`, `CC/N=C(\NCC)NCCCC[C@H](NC(=O)[C@H](CC(C)C)NC(=O)[C@@H](CCCCN/C(=N/CC)NCC)NC(=O)[C@H](Cc1ccc(O)cc1)NC(=O)[C@H](CO)NC(=O)[C@@H](Cc1cccnc1)NC(=O)[C@@H](Cc1ccc(Cl)cc1)NC(=O)[C@@H](Cc1ccc2ccccc2c1)NC(C)=O)C(=O)N1CCC[C@H]1C(=O)N[C@H](C)C(N)=O` [Ganirelix] is lower in mCherry: 141% for the first, 47% for the second.
